Among the data in paper PMC9653470 (2022) are step yield, isolated mass and isolated yield values, retold here.

The nature of data set [1]: general procedure: Fmoc solid-phase peptide synthesis; 2-Chlorotrityl chloride resin (1.14 mmol g-1) or Rink amide resin (0.3–0.49 mmol g-1); DIC/Oxyma. To be noted: late stage modification step, on diselenide 1.
Data set [2] is described as follows: general procedure: Fmoc solid-phase peptide synthesis; Rink amide; DIC/Oxyma. To be noted: whole synthesis, scale 50 µmol.
Data set [3] in a line: general procedure: Fmoc solid-phase peptide synthesis; Rink amide resin; DIC/Oxyma. Particulars: whole synthesis, scale 200 umol.

For some assays here: Some peptides are written in HELM: one residue between dots, names in brackets for other building blocks, links after the first $.

On to “PEPTIDE1{[Sec].S.P.G.Y.S.[am]}|PEPTIDE2{[Ala_b].S.P.G.Y.S.[am]}$PEPTIDE1,PEPTIDE2,1:R3-1:R3$$$V2.0”, for which the step yield in data set [1] stood at 76%.
In the case of “[H2N-Sec-(PEG4)2-Arg8-CONH2]2 Diselenide”, in data set [2], the isolated mass turned out to be 25 mg and the isolated yield was determined as 42% yield.
The substance [H2N-USPGYS-NH2]2 returned an isolated yield in data set [3] (from theoretical resin loading of 200 umol) of 28%. Moreover, the isolated mass in data set [3] was found to be 42.5 mg.
